# Values of other authors as cited in US20220409614A1, “TREATING BEHAVIORAL AND PSYCHOLOGICAL SYMPTOMS IN DEMENTIA PATIENTS” (SUVEN LIFE SCIENCES LIMITED, priority 2019, published 2022).
# At least one compound was matched to its structure with a doubt left.
# Conditions: short-term treatment; cited from earlier work
smiles,measurement,value
Cc1cc2c(s1)Nc1ccccc1N=C2N1CCN(C)CC1 [olanzapine],symptomatic benefit in BPSD,modest symptomatic benefit
